Numbering of substitutions follows the chain as printed. Names and notes keep the numbering of the source. These are yes or no findings as the source states them, for the method shown. For some of these results: Binding can be weak; no strength is given. For some of these results: Binding seen in cells or lysates may run through a third protein.
T1: serine hydroxymethyltransferase (SHMT1), purified recombinant, tetrameric (human) (UniProt P34896)
T1 sequence: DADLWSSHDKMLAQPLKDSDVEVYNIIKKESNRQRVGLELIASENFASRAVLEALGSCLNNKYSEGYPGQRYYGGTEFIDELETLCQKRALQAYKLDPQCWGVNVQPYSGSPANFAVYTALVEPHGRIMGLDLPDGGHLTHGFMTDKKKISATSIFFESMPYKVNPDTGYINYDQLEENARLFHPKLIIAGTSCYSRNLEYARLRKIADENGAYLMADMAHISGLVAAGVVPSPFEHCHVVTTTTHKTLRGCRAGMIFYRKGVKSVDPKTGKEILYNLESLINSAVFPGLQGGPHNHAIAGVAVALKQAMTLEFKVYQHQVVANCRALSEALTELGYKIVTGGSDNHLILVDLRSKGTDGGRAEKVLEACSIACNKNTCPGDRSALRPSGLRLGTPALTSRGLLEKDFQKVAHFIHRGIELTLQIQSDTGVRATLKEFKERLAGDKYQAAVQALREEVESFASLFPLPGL

B1: serine hydroxymethyltransferase (SHMT1), purified recombinant, tetrameric (enzyme, UniProt P34896 11-480)
chain: T1 sequence
B2: dimeric variant of SHMT1 (H135N‐R137A) (enzyme, UniProt P34896 11-480)
chain: T1 sequence with H125N, R127A

Tests used:
[1] = target: T1, serine hydroxymethyltransferase (SHMT1), purified recombinant, tetrameric (human); assay: co-IP; purified SHMT1 and Chimera-Long mixed 1 : 2 in 50 mM NaCl, 20 mM Hepes pH 7.5; anti-SHMT1 or anti-TYMS with Protein G-Plus agarose beads, overnight; western blot with anti-DHFR, anti-TYMS or anti-SHMT1; both purified
[2] = target: T1, serine hydroxymethyltransferase (SHMT1), purified recombinant, tetrameric (human); assay: far-Western, overlay or dot blot; proteins resolved by SDS/PAGE, blotted on PVDF, renatured on the membrane, incubated with 50 ng/mL of the purified protein in solution at 4 °C overnight; detected with antibodies to the protein in solution; both purified
[3] = target: Chimera‐Long (human DHFR‐TYMS bifunctional chimeric enzyme with 20 amino acid linker) (human); assay: differential scanning fluorimetry; 0.5 uM SHMT1 and 0.5 uM Chimera-Long mixed and incubated overnight at 4 °C in 20 mM Na Hepes, 50 mM NaCl; Sypro Orange; with or without CHO-THF, NADPH or dUMP; both purified
[4] = target: Chimera‐Long (human DHFR‐TYMS bifunctional chimeric enzyme with 20 amino acid linker) (human); assay: co-IP; purified SHMT1 and Chimera-Long mixed 1 : 2 in 50 mM NaCl, 20 mM Hepes pH 7.5; anti-SHMT1 or anti-TYMS with Protein G-Plus agarose beads, overnight; western blot with anti-DHFR, anti-TYMS or anti-SHMT1; both purified
[5] = target: Chimera‐Long (human DHFR‐TYMS bifunctional chimeric enzyme with 20 amino acid linker) (human); assay: far-Western, overlay or dot blot; proteins resolved by SDS/PAGE, blotted on PVDF, renatured on the membrane, incubated with 50 ng/mL of the purified protein in solution at 4 °C overnight; detected with antibodies to the protein in solution; both purified
[6] = target: Chimera‐Short (human DHFR‐TYMS bifunctional chimeric enzyme with 10 amino acid linker) (human); assay: as above

Molecule | binding [1] | binding [2] | binding [3] | binding [4] | binding [5] | binding [6]
Chimera‐Long (human DHFR‐TYMS bifunctional chimeric enzyme with 20 amino acid linker) | binds | binds | – | – | – | –
B1 | – | – | binds | binds | binds | no binding (tested: 50 ng·mL^−1 of the bait protein)
B2 | – | – | – | – | no binding (tested: 50 ng·mL^−1 of the bait protein) | –

From paper PMC9299187
